Test results reported in patent US20200055835A1, “USE OF TRICYCLIC SESQUITERPENE LACTONES IN THE TREATMENT OF OBESITY AND RELATED DISEASES AND NON-THERAPEUTIC TREATABLE CONDITIONS” (NEEM BIOTECH LTD., priority 2010, published 2020).

Assay: Food intake and efficiency of assimilation (bomb calorimeter) in the rat feeding experiment
Format: in vivo, Sprague-Dawley (SD) rats
Details: 0.1% in chow

Compound `C=C(CO)C(=O)OC1CC(=C)C2CC(O)C(=C)C2C2OC(=O)C(=C)C12` (centres unmarked) [Cynaropicrin, (8-hydroxy-3,6,9-trimethylidene-2-oxo-3a,4,5,6a,7,8,9a, 9b-octahydroazuleno[4,5-b]furan-4-yl) 2-(hydroxymethyl)prop-2-enoate] has an assimilation efficiency (HF (high fat diet, 34% fat)) of 83% and an assimilation efficiency (LF (balanced diet, 4% fat)) of 86%.
